Measurements from article PMC12315821.

Amino acid sequences for entries named in this document (tags omitted). Residues count along the entry.
UniProt P29595, residues 1-76: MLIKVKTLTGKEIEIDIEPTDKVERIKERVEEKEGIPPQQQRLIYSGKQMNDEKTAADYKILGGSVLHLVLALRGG

Target: neuronal precursor cell-expressed developmentally down-regulated protein 8 (NEDD8), endogenous in HT22 cells (mouse (endogenous in HT22)) (UniProt P29595)
Experiment: affinity purification with mass spectrometry; Co-IP with a NEDD8 antibody from NETs-treated HT22 cells, silver staining, mass spectrometry

binding: binds
B1: TRIM56, endogenous in HT22 cells (protein, UniProt Q80VI1 1-734)
chain: MNSKVSSPTLLEALSSDFLACKICLEQLHTPKTLPCLHTYCQDCLAQLDIGGQVRCPECREIVPVPAEGVAAFKTNFFVNGLLDLVKARAPGDVHSGKPTCALCPLVGGKSSGGPATARCLDCADDLCQACADGHRCSRQTHKHRVVDLVGYRAGWYDEEARERQASQCPQHPGEALCFLCQPCSQLLCKDCRLGPHIDHPCLPLAEAVRSRKPGLEELLAGVDSNLVELEATRVAEKEALALLREQAASVGTQVEEAAERILKSLLAQKQEVLGQLRALVEAAEEATRERLTKIERQEQVAKAAAAFARRVLSLGLEAEILSLEGAITQRLRQLQDAPWTSGPTRCVLPQLELHPGLEDKNCHLLRLIFEEPKQSPKDSGKGGAGTQGGDEAQGQGDDRTKIGKQGGAQPLTPKEGKDQNPQEDDGVFIERGNRPNKKKKCKGRGKSVSREPSPILRPNLEGSGLLPRPVFSWSFPTRMPGDKRSPRITGLCPYGPQEILVADEQNRVLKRFSLNGDYKGTVQVPEGCSPCSVAALQNAVAFSANAKLYLVSPDGEIQWRRSLSLTQSSHAVAAMPCGDRVAVSVAGHVEVYKKDGSLATRFIPGGKASRGQRALVFLTTSPQGNFVGSDWQQNSVVFCDGLGQVIWEYKGPGLHGCQPGSVSVDKKGYIFLTLREVNKVVILDPKGSLLGDFLTAYHGLEKPRVTTMVDGKYLVVSLSNGTIHVFRVRFPDS

Results are given in words; binding and its absence hold for the method and conditions named. Binding seen in cells or lysates may run through a third protein. These calls come from enrichment with a bait or labelling near it, and not all partners need be listed.
